# Reference: publication doi:10.1101/2020.02.18.954511
# Chains of the proteins cited; added tags and fusions are not shown. Residues count along the entry.
# UniProt P02769, residues 25-607: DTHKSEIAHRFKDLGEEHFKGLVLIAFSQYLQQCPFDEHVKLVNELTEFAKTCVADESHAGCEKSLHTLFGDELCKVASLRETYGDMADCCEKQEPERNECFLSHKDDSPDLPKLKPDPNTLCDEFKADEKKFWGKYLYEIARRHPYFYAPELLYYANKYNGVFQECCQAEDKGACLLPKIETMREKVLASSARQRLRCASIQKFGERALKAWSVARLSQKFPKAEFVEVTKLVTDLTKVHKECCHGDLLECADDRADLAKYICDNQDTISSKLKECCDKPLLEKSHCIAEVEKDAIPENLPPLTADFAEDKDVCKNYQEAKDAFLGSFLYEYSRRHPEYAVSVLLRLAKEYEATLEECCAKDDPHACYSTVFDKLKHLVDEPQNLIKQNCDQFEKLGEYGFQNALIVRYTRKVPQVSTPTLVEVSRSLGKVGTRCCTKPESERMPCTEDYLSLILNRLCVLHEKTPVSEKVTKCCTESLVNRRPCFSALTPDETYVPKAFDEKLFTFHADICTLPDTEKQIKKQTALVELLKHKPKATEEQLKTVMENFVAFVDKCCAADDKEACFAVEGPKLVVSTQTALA
# These are yes or no findings as the source states them, for the method shown.
# Molecular target: T1, diol dehydratase PduCDE (Salmonella enterica) (UniProt P37450)
# T1 sequence 1: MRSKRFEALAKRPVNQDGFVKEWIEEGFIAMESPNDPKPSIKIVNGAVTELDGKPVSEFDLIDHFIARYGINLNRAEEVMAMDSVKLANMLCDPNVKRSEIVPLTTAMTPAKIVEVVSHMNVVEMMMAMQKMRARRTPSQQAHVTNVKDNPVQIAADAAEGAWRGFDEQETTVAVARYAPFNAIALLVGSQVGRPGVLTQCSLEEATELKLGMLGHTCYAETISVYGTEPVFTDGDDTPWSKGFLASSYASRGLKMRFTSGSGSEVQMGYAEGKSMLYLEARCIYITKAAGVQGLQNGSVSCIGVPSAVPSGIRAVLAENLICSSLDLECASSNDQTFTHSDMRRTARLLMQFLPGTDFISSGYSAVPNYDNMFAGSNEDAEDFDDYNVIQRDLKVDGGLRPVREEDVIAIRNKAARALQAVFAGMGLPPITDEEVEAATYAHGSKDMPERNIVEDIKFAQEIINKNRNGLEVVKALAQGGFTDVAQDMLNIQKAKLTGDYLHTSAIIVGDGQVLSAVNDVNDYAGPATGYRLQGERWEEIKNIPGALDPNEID
# T1 sequence 2: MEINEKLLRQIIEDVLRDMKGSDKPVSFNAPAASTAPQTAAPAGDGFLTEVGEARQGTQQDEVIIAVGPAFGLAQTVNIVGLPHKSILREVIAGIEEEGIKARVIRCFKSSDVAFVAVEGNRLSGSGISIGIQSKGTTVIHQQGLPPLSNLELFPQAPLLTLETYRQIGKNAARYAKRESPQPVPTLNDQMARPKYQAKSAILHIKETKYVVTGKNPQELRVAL
# T1 sequence 3: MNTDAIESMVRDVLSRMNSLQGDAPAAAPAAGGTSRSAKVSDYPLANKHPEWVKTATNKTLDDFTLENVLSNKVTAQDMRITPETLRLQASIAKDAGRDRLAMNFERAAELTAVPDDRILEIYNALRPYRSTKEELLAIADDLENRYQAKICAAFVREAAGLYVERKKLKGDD
# Assay: BLI
substance,measurement,value
BSA (from UniProt P02769 25-607),binding,no binding
